Publication PMC7819943, “Rice protein-binding microarrays: a tool to detect cis-acting elements near promoter regions in rice”
The other results are listed elsewhere or left out.

Each sequence was assayed against T1, OsSMF1 (Oryza sativa, UniProt Q6ZLB0 1-436) (assay: protein-binding microarray (RPBM); PBS, 2% BSA, 51.3 ng/ul salmon testes DNA, 50 uM zinc acetate, 200 nM TF, 25 C, 1 h; high values mean tight binding). Details: protein: recombinant; tags: N-terminal polyhistidine and DsRed monomer fusion (pET32a); chain copies: 2; label: CyDye5-dUTP incorporated in the synthesized complementary strand; 3' TTTTT single-stranded linker to array surface; dsDNA, one strand shown.
T1 sequence: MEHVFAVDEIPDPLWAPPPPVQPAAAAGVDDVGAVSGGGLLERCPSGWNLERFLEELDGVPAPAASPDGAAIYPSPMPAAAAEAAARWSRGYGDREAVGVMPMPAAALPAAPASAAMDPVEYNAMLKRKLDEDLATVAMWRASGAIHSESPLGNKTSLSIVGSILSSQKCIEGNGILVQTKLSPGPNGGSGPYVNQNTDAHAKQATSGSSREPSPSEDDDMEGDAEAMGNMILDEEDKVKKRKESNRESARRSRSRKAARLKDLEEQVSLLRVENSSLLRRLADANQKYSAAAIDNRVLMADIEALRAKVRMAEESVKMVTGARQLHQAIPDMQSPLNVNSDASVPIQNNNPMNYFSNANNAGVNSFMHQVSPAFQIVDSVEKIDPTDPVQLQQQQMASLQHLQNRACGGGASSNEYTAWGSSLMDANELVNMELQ
Outline: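 An Axon 4000B scanner gave the binding signal as per-feature fluorescence intensity in arbitrary units. This followed washing of a custom Agilent array that had been incubated for 1 h at 25 °C with 200 nM protein in PBS, 2% BSA, salmon testes DNA and 50 µM zinc acetate. The proteins were transcription factors fused at the N-terminus to polyhistidine and DsRed, expressed in E. coli BL21-CodonPlus and purified on Ni–NTA.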

Sequence	binding signal
ACAATGTAACCATACAACATTCTTCAGCATCATGAATCAGCGGAGTCACCTAGTGCAG	3230 fluorescence intensity (a.u.)
ACGGCTGTACGTCCTGCGTGTCCTCTTCTTGGGCGGCGGCCGGAGTCACCTAGTGCAG	4120 fluorescence intensity (a.u.)
ACAAAGATGCTGCTAAAAGTGTCAGCACCGATTTCAGTCGCGGAGTCACCTAGTGCAG	3360 fluorescence intensity (a.u.)
ATTGTTATTAGTGTACGGTGACATAATATCTAGTCACAACCGGAGTCACCTAGTGCAG	6600 fluorescence intensity (a.u.)
CCAACCCATCTCCACCGTCCATCTCCATCCGACGCCTCCCCGGAGTCACCTAGTGCAG	24300 fluorescence intensity (a.u.)
TGCTGACAAGTGGGACCCACAAGTTGACTCAGCTGCCATGCGGAGTCACCTAGTGCAG	7210 fluorescence intensity (a.u.)
CTTCAGGTGGTAGGACGCGCGGACTATAGGTAACGTGGCGCGGAGTCACCTAGTGCAG	3360 fluorescence intensity (a.u.)
TCAGCCGATCCGCGACATTCCTGTCCGGGTGAGTCCAACCCGGAGTCACCTAGTGCAG	3530 fluorescence intensity (a.u.)
AAACATCACAGTACAGCGCGTTGCCACGTCCCGCTTACTGCGGAGTCACCTAGTGCAG	9170 fluorescence intensity (a.u.)
GATTAGGGCTGCTAAAATCGTTTAGATGTTGACAGCACGGCGGAGTCACCTAGTGCAG	3860 fluorescence intensity (a.u.)
TGGCCTATCTCTTCACACGTTGACGCGACCACGTTGACGCCGGAGTCACCTAGTGCAG	3450 fluorescence intensity (a.u.)
TAAGCTCATTGTTCATGTGACGTATACGAACATCTCAGTACGGAGTCACCTAGTGCAG	4540 fluorescence intensity (a.u.)
CAAACAGGTAACAAATTTCTATCTTTAATTTTGATATTTACGGAGTCACCTAGTGCAG	24200 fluorescence intensity (a.u.)
GATCTAATCGATGACACCAATCATGATACTCCCTACATAACGGAGTCACCTAGTGCAG	3950 fluorescence intensity (a.u.)
AGAGAGAGGCAGATGGCATGGAGAGGTGTTGCAATGTGCACGGAGTCACCTAGTGCAG	3200 fluorescence intensity (a.u.)
TATCGGGTGGAGTTGGCTAAATCTGTGCCATTCGGCATACCGGAGTCACCTAGTGCAG	3260 fluorescence intensity (a.u.)
CATCGGCCCACATCACCAGTGATGGTTGTGTCCTCCGACCCGGAGTCACCTAGTGCAG	4600 fluorescence intensity (a.u.)
GTTGTTGATGTGATTGTGTGTATTCAAGTAGAGATTGGGTCGGAGTCACCTAGTGCAG	3240 fluorescence intensity (a.u.)
CGCTGAGGCGCCCTAACGCCGCCGTCTCCGGCCGCGCGACCGGAGTCACCTAGTGCAG	13000 fluorescence intensity (a.u.)
GTTTTGTTCAACAAAGCAGCTGAGTCAGCACAGGACCCACCGGAGTCACCTAGTGCAG	15200 fluorescence intensity (a.u.)
CCACTTGATCGAGGTGGCGCCCGCCGGTGCACGTGTCCGCCGGAGTCACCTAGTGCAG	3790 fluorescence intensity (a.u.)

Sequence	binding signal
GGGGTGCGGGGAGACGCTGGAGGTGGAGCCGGGACTGACGCGGAGTCACCTAGTGCAG	3880 fluorescence intensity (a.u.)
TGCCGGAGTCCGTCACCGCGAACACGTCCGCCGAGGCGCACGGAGTCACCTAGTGCAG	3960 fluorescence intensity (a.u.)
GTAACGTACGACCGTTGTCATCGTAGACGCTTCCCGGATTCGGAGTCACCTAGTGCAG	45700 fluorescence intensity (a.u.)
AACGGAGAGGGAGGAGTTGGGATCAATGTGGAGGTCCTTGCGGAGTCACCTAGTGCAG	3180 fluorescence intensity (a.u.)
AGTACATGAATCCGGATGGATAGGTTCTACCACGTGGAATCGGAGTCACCTAGTGCAG	7950 fluorescence intensity (a.u.)
TAATCAAGATGAGAGGTGAGTGATCGATGTACGTTGTTTGCGGAGTCACCTAGTGCAG	3560 fluorescence intensity (a.u.)
TATCTGCAAGCATCATCTATTCTTCCAGCGTATAAGTACCCGGAGTCACCTAGTGCAG	3400 fluorescence intensity (a.u.)
TGCAAGTTGGGAGTCATGATTTCTGGTATTGCGGTTCAGGCGGAGTCACCTAGTGCAG	3680 fluorescence intensity (a.u.)
TTTAGCATAGTCCAGTCAACTCATAGCACAATTCTCAATCCGGAGTCACCTAGTGCAG	3620 fluorescence intensity (a.u.)
ACTTTACCCTAGTGGTGGCGTGGATCGGCAAAGTTGGGCCCGGAGTCACCTAGTGCAG	4330 fluorescence intensity (a.u.)
CCTGCCCGTTTCAGACCTCGGCGCGTGCACATATATACCACGGAGTCACCTAGTGCAG	26300 fluorescence intensity (a.u.)
ACAGATGTTATTGTTGCTGCTCCACCGTGGAGGCGCTAGTCGGAGTCACCTAGTGCAG	4230 fluorescence intensity (a.u.)
GATGAGTGGATAATGTGTCTCTTCCAGTTGGATGAGTAAGCGGAGTCACCTAGTGCAG	3370 fluorescence intensity (a.u.)
GACTACCATTTTAAGAAGTACAGTGTCATCAGGCACCAGCCGGAGTCACCTAGTGCAG	3500 fluorescence intensity (a.u.)
TACATTCTCTACATTTGTGCCACCAACACAGTTTGTAATGCGGAGTCACCTAGTGCAG	4180 fluorescence intensity (a.u.)
TGATGTGAACTTAACTTGTCTTACGTGGATGATTCCGTGTCGGAGTCACCTAGTGCAG	13100 fluorescence intensity (a.u.)
GAGTATGGTTGTTATGCATGACAGCGGCTTATAGTCGACTCGGAGTCACCTAGTGCAG	3940 fluorescence intensity (a.u.)
CCGTCTCCTCTGCTTCTCCCACAGCTCCGGCGACAATCCACGGAGTCACCTAGTGCAG	3230 fluorescence intensity (a.u.)
CGAAAAGAAAATTATCCTTTGATATGTTGCAAATCAAGTGCGGAGTCACCTAGTGCAG	29100 fluorescence intensity (a.u.)
CGCTCAACGCATGCCTTGCGAGACCGGCAAAGCCATTTCCCGGAGTCACCTAGTGCAG	19900 fluorescence intensity (a.u.)
ACGGTATGAATTTTGCGTCTGGGCACCTGAACGACGAACACGGAGTCACCTAGTGCAG	5120 fluorescence intensity (a.u.)

Sequence	binding signal
AGCGCGGTGACCGCGTCCACGTGGTGCACCCAGGTGCACCCGGAGTCACCTAGTGCAG	4140 fluorescence intensity (a.u.)
ACAAAAGCACCCGTTCTTTTAAGTAATCATCGCTCGTGCACGGAGTCACCTAGTGCAG	3210 fluorescence intensity (a.u.)
CTATCTCTCACACTGATCCAGGCTCTCTCCACTACTATATCGGAGTCACCTAGTGCAG	3360 fluorescence intensity (a.u.)
GTTAATTGCAGGCTTGTTTGGAAACTTCACACAAATTTTGCGGAGTCACCTAGTGCAG	4480 fluorescence intensity (a.u.)
GTTCTCCCGGTGAAATATACTGTTCGCTGCTTTTGTGTGCCGGAGTCACCTAGTGCAG	3530 fluorescence intensity (a.u.)
TCTTTTGGTTTACAACACTTTGTATGCTAGCATTATTTTGCGGAGTCACCTAGTGCAG	3420 fluorescence intensity (a.u.)
CCACTCAACCTGTCCCCACCACGTCAGTGACTCACTACCCCGGAGTCACCTAGTGCAG	10400 fluorescence intensity (a.u.)
TGATGGAGCTCACGCTGGCCGACCTGGCCGAGGCCACGTCCGGAGTCACCTAGTGCAG	3440 fluorescence intensity (a.u.)
ATGCTGGCGCGTGGTAGCCCAACAATCCCAATCCCCAAATCGGAGTCACCTAGTGCAG	4040 fluorescence intensity (a.u.)
AACTTATTCCGGATGTCATATAGGTTCAAATGGGCCTCAGCGGAGTCACCTAGTGCAG	18300 fluorescence intensity (a.u.)
TTGTTCCACCCTTCACCTGACCACGTGTGCTCCACCCGGCCGGAGTCACCTAGTGCAG	9970 fluorescence intensity (a.u.)
TACCGTCTTGTGAATTGTGATGTGGAACTGTCAACCGTGTCGGAGTCACCTAGTGCAG	4900 fluorescence intensity (a.u.)
CACCTCTAAGATACATGGAATACTACATAGGTCCTGTTTGCGGAGTCACCTAGTGCAG	4260 fluorescence intensity (a.u.)
ATGGCAGGACAGCTCACTAACCTGGGAATTGTGTCATGGACGGAGTCACCTAGTGCAG	3220 fluorescence intensity (a.u.)
AATAAATTCTCACAAACTCTTTAGGAAACTGATGTGGTAACGGAGTCACCTAGTGCAG	3420 fluorescence intensity (a.u.)
GAATTGCACTCCAGGACCATGGGGTTGAAATTTAGTACCTCGGAGTCACCTAGTGCAG	3210 fluorescence intensity (a.u.)
TCCTCCTTCCCGGCGTCGGTGACGGTGACGAACTAGGTTTCGGAGTCACCTAGTGCAG	4140 fluorescence intensity (a.u.)
TACTAGGTAATGTCTCATCATGTACTAGTTAGCTATATTTCGGAGTCACCTAGTGCAG	4000 fluorescence intensity (a.u.)
AAGTTATAACGACTAGAATAGTTAGCATTAACACGTATCACGGAGTCACCTAGTGCAG	3840 fluorescence intensity (a.u.)
CTACATTCATGATGCATAAATTTATGATGTGGATGCAAATCGGAGTCACCTAGTGCAG	3960 fluorescence intensity (a.u.)
CGTCGGCACCATCCCCGACGTGGCCAGCTTTCTCATCTCGCGGAGTCACCTAGTGCAG	6330 fluorescence intensity (a.u.)

Sequence	binding signal
GCATCTTTCGAAGTATATGACTCATCTGAACAACTTGCAACGGAGTCACCTAGTGCAG	5980 fluorescence intensity (a.u.)
GGAGATACTGGCACGTAAGGTGCTGACAAAGCCTGTTGAGCGGAGTCACCTAGTGCAG	6000 fluorescence intensity (a.u.)
TTTATAAAGCTGCCAAATAAAATTTATGTTTAGTTTGTTACGGAGTCACCTAGTGCAG	3620 fluorescence intensity (a.u.)
AAACAAAACTATGGACTATGATTTGACGTAAGCATCATGTCGGAGTCACCTAGTGCAG	4520 fluorescence intensity (a.u.)
GTGTGTGTGTGTGTGTGTGTGTGTGTGTGTTTTAGCAACTCGGAGTCACCTAGTGCAG	5690 fluorescence intensity (a.u.)
GCTTCTTCCCCAACACCTCCATCAACAACGTCACCCTCCGCGGAGTCACCTAGTGCAG	4180 fluorescence intensity (a.u.)
CGCGAGGAAGGCGATGACAGGTGGGCCCCACCCGTCAGCGCGGAGTCACCTAGTGCAG	3340 fluorescence intensity (a.u.)
GGGTGGTGATGCATGTGCTTCTACAATCATGTATTGGTTACGGAGTCACCTAGTGCAG	3770 fluorescence intensity (a.u.)
AAATCACTGCAGTCCTATTGATGATAGCGTGGCGTCGCAGCGGAGTCACCTAGTGCAG	5520 fluorescence intensity (a.u.)
CATCAAGTCATCAACAGTCACATGCCCTGCTAGCTAGTACCGGAGTCACCTAGTGCAG	22400 fluorescence intensity (a.u.)
GCCGGCGGCCATCGGCGTCGCCTACGTCGCCGTCAAGCCTCGGAGTCACCTAGTGCAG	19100 fluorescence intensity (a.u.)
TCAGTTGTTTACTGTCATGGTGTCATATTTCTCGCATCGACGGAGTCACCTAGTGCAG	4350 fluorescence intensity (a.u.)
ATTTGGGCGGCAAGCTGACGTGGCACACGGCGTCATGACTCGGAGTCACCTAGTGCAG	18100 fluorescence intensity (a.u.)
ACGTCTCCTCCTCCTCCACGTCAAACCACAATCCAACCAACGGAGTCACCTAGTGCAG	5400 fluorescence intensity (a.u.)
AATCTGCGGCGCGAGGCGGAGGTGGTGGTGGTGGTGGTGGCGGAGTCACCTAGTGCAG	3950 fluorescence intensity (a.u.)
TACAGAGGATATCTGCACATGCGACGCTATGAAATAAACGCGGAGTCACCTAGTGCAG	3980 fluorescence intensity (a.u.)
TCGGCCAATGCGGAGCCGTCAGCTCTCCGCTGCTCGGCTACGGAGTCACCTAGTGCAG	44400 fluorescence intensity (a.u.)
GATGGACATTGTTTGCCATCACCGTCAACGACCGTTGACTCGGAGTCACCTAGTGCAG	3760 fluorescence intensity (a.u.)
GCGCAGGGCTTCCCATTGACGCATAGCGCATACTCCAGCGCGGAGTCACCTAGTGCAG	3250 fluorescence intensity (a.u.)
GTGGCAATGCAGCATCATAGCTGGCTGTCGGTTGCCGCTACGGAGTCACCTAGTGCAG	3410 fluorescence intensity (a.u.)
GGGCAACATCAGTGTCATCATTCCTCATGAGCACCTCAGCCGGAGTCACCTAGTGCAG	3910 fluorescence intensity (a.u.)

A portion from the list above, for reference:
Sequence	binding signal
GCCGGCGGCCATCGGCGTCGCCTACGTCGCCGTCAAGCCTCGGAGTCACCTAGTGCAG	19100 fluorescence intensity (a.u.)
TCAGTTGTTTACTGTCATGGTGTCATATTTCTCGCATCGACGGAGTCACCTAGTGCAG	4350 fluorescence intensity (a.u.)
ATTTGGGCGGCAAGCTGACGTGGCACACGGCGTCATGACTCGGAGTCACCTAGTGCAG	18100 fluorescence intensity (a.u.)
ACGTCTCCTCCTCCTCCACGTCAAACCACAATCCAACCAACGGAGTCACCTAGTGCAG	5400 fluorescence intensity (a.u.)
AATCTGCGGCGCGAGGCGGAGGTGGTGGTGGTGGTGGTGGCGGAGTCACCTAGTGCAG	3950 fluorescence intensity (a.u.)
TACAGAGGATATCTGCACATGCGACGCTATGAAATAAACGCGGAGTCACCTAGTGCAG	3980 fluorescence intensity (a.u.)
TCGGCCAATGCGGAGCCGTCAGCTCTCCGCTGCTCGGCTACGGAGTCACCTAGTGCAG	44400 fluorescence intensity (a.u.)
GATGGACATTGTTTGCCATCACCGTCAACGACCGTTGACTCGGAGTCACCTAGTGCAG	3760 fluorescence intensity (a.u.)
GCGCAGGGCTTCCCATTGACGCATAGCGCATACTCCAGCGCGGAGTCACCTAGTGCAG	3250 fluorescence intensity (a.u.)
